Record: PubChem BioAssay AID686937 (Drosophila RNAi Screening Center, 2013)
Purpose: 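Genes in the fly needed for secretion of protein constitutively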 (primary screen). System: Drosophila S2 cells expressing secreted horseradish peroxidase. Reagent: long dsRNA against Drosophila genes. Duration: about 5.5 days (5 days dsRNA, then 12 h reporter induction). Challenge: reporter expression induced after 5 days of dsRNA, read 12 h later; inducer not stated. Measurement: 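After 5 days of dsRNA and 12 h of reporter induction, medium peroxidase read by chemiluminescence and scored as per-plate z-score; higher values mean more reporter released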. Direction: z-score: higher = more reporter secreted into medium.
The deposit covers about 23,000 reagents; below is a random part of those with a known target gene and a result. 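Reduced-secretion tags in replicate 1 do not always agree with the z-scores; no criterion for assigning the tags was given.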 Names joined by + are all predicted targets of the reagent. Not all columns of the deposit are shown. The record does not give: the amount of reagent.

z-score, replicate 1, by gene and reagent
Rpn11 (Regulatory particle non-ATPase 11): DRSC03422 -9.19
Bin1 (Bicoid interacting protein 1): DRSC16843 0.49
su(f) (suppressor of forked): DRSC20907 -0.24
CG31787: DRSC01632 -0.36
CG12814: DRSC14552 -7.03; DRSC14553 0.17
sals (sarcomere length short): DRSC14925 0.28; DRSC16113 0.1
CG42821: DRSC13231 0.51
CG18596: DRSC15355 0.15
PXo (P[[i]]-sensitive XPR1 orthologue): DRSC09734 0.23
CG12506: DRSC00347 0.55
mus301 (mutagen-sensitive 301): DRSC10939 0.27
mio (missing oocyte): DRSC00692 -0.49; DRSC22056 -1.04
CG32071: DRSC22298 -1.17
CG13766: DRSC02271 0.12
Top1 (Topoisomerase 1): DRSC20295 0.19
CG4678: DRSC19911 -0.2; DRSC19912 0.14
Vmat + CG13330: DRSC06365 0.28
Muc68E (Mucin 68E): DRSC09146 0.48
Edem1 (ER degradation enhancer, mannosidase alpha-like 1): DRSC18573 0.02
CG31869: DRSC02582 -0.06; DRSC02674 -0.03
Polr2E (RNA polymerase II, I and III subunit E): DRSC06100 -4.23
CG34398: DRSC01052 0.57; DRSC02510 0.32; DRSC02511 0.12; DRSC03228 0.56
CG46491: DRSC06565 0.52; DRSC06566 0.2
Pomp: DRSC03201 -6.09
ND-ASHI (NADH dehydrogenase (ubiquinone) ASHI subunit): DRSC18291 0.26
Blm + CG14721: DRSC14943 0.29
PIG-F (Phosphatidylinositol glycan anchor biosynthesis class F): DRSC11069 0.26
CG30485: DRSC06376 0.31
CG11634: DRSC03700 0.13
dah (discontinuous actin hexagon): DRSC20320 0.36
mamo (maternal gene required for meiosis): DRSC19001 -5.14; DRSC19370 0.21; DRSC19371 0.28; DRSC19372 0.23; DRSC19373 0.01
CG8379: DRSC16414 0.35
Tpr2 (Tetratricopeptide repeat protein 2): DRSC03461 0.14
Xpd (Xeroderma pigmentosum D): DRSC04666 -2.43
Mdr50 (Multi drug resistance 50): DRSC07467 0.55
ALiX (ALG-2 interacting protein X): DRSC14564 0.37
Snmp1 (Sensory neuron membrane protein 1): DRSC16168 -0.33
CG42490 (retired record): DRSC01649 0.48
Ndg (Nidogen): DRSC06223 0.49
CG33969: DRSC11777 0.22
CG14606: DRSC12550 0.19
Dlip2 (Dorsal interacting protein 2): DRSC12346 0.36
AP-1mu (Adaptor Protein complex 1, mu subunit): DRSC14089 0.43
I-2 (Inhibitor-2): DRSC11194 0.42
CG13992: DRSC02324 0.02
Gp210 (Glycoprotein 210 kDa): DRSC04861 0.35; DRSC04900 0.19
klhl10 (kelch like family member 10): DRSC05274 0.38; DRSC19171 -0.01; DRSC20750 0.17; DRSC20925 0.04
RpS20 (Ribosomal protein S20): DRSC16836 -3.05
Grl62a (Gustatory receptor-like 62a): DRSC07963 0.29
CG5773: DRSC06955 0.42
CG40378 (retired record): DRSC20958 0.15; DRSC22174 -0.69
Sdc (Syndecan): DRSC04654 -0.02
dysc (dyschronic): DRSC10273 -4.58; DRSC11040 0.43; DRSC22334 -1.27; DRSC22437 1.13; DRSC22824 0.18
CG13744: DRSC06415 0.34
CG3880: DRSC04428 0.11; DRSC21404 -0.04
slo (slowpoke): DRSC13685 -0.36; DRSC17057 0.51; DRSC21896 0.35
Vps50 (Vacuolar protein sorting 50): DRSC06910 0.41
Spc105R (Spc105-related): DRSC11663 -3.98
Hers (Histone gene-specific Epigenetic Repressor in late S phase): DRSC19429 0.04; DRSC19676 0.46
CG9399: DRSC16488 0.28
Tmlh (Trimethyllysine hydroxylase): DRSC15563 0.31
Manf (Mesencephalic astrocyte-derived neurotrophic factor): DRSC14091 0.35
Spn42Da (Serpin 42Da): DRSC05025 0.31
CG3226: DRSC18296 0.38
BORCS7 + CG13430: DRSC06392 0.46; DRSC06707 -0.25
drongo: DRSC00814 0.36
CG34171: DRSC01637 -0.07
CG10834: DRSC03693 -0.1
mRpS14 (mitochondrial ribosomal protein S14): DRSC19444 -0.37
DENR (Density regulated protein): DRSC20151 0.42
Dlip3 (Dorsal interacting protein 3): DRSC07401 0.52
yellow-f: DRSC15348 0.32
CG43123: DRSC05049 0.08
Strump (Strumpellin): DRSC09872 0.21
PGRP-SC2 (Peptidoglycan recognition protein SC2): DRSC06481 0.16
fest (wurstfest): DRSC07349 0.33
Sptz (Spastizin): DRSC15758 0.34

Not a retest: an excerpt of the list.
z-score, replicate 1, by gene and reagent
mamo (maternal gene required for meiosis): DRSC19372 0.23; DRSC19373 0.01
CG8379: DRSC16414 0.35
Tpr2 (Tetratricopeptide repeat protein 2): DRSC03461 0.14
Xpd (Xeroderma pigmentosum D): DRSC04666 -2.43
Mdr50 (Multi drug resistance 50): DRSC07467 0.55
ALiX (ALG-2 interacting protein X): DRSC14564 0.37
Snmp1 (Sensory neuron membrane protein 1): DRSC16168 -0.33
CG42490 (retired record): DRSC01649 0.48
Ndg (Nidogen): DRSC06223 0.49
CG33969: DRSC11777 0.22
CG14606: DRSC12550 0.19
Dlip2 (Dorsal interacting protein 2): DRSC12346 0.36
AP-1mu (Adaptor Protein complex 1, mu subunit): DRSC14089 0.43
I-2 (Inhibitor-2): DRSC11194 0.42
